Experimental data from paper PMC6001375, “CLERK is a novel receptor kinase required for sensing of root-active CLE peptides in Arabidopsis” (Development (Cambridge, England), 2018).
Results are given in words; binding and its absence hold for the method and conditions named. Each block holds one binder with its values, some of them ahead of it.

Tests used:
[1] = biological target: T1, BARELY ANY MERISTEM 1 (BAM1) ectodomain (Arabidopsis thaliana) (UniProt O49545); assay: condition: 100 µg CLERK-ECD, equimolar BAM1-ECD, with 50 µM CLE9; SEC; analytical gel filtration, Superdex 200 Increase 10/300 GL, 20 mM citrate (pH 5.0), 150 mM NaCl; 100 µg of each NIK-ECD, CLERK-ECD or At5G63710-ECD mixed with equimolar BAM1-ECD, BAM3-ECD or PXY-ECD and 50 µM CLE9, CLE45 or CLE41 peptide, respectively; fractions on Coomassie-stained gels; both purified
T1 sequence: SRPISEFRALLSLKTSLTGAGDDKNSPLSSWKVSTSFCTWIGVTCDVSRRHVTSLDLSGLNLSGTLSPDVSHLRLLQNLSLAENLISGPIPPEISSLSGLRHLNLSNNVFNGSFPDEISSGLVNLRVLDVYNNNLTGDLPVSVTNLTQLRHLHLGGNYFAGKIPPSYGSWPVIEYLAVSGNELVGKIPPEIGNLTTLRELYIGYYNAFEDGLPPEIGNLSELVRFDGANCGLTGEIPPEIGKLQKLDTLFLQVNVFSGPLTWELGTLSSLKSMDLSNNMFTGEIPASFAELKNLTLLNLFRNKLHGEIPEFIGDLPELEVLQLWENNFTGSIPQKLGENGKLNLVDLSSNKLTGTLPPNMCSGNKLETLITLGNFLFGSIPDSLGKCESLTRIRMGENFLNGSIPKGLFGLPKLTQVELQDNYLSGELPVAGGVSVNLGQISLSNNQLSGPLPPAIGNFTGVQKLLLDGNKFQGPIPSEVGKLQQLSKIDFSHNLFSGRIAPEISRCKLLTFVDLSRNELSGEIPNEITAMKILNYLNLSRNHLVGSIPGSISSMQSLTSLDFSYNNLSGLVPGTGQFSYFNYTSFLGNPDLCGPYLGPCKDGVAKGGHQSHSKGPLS

[2] = biological target: T2, PHLOEM … WITH XYLEM (PXY) ectodomain (Arabidopsis thaliana) (UniProt Q9FII5); assay: condition: 100 µg CLERK-ECD, equimolar PXY-ECD, with 50 µM CLE41; SEC; analytical gel filtration, Superdex 200 Increase 10/300 GL, 20 mM citrate (pH 5.0), 150 mM NaCl; 100 µg of each NIK-ECD, CLERK-ECD or At5G63710-ECD mixed with equimolar BAM1-ECD, BAM3-ECD or PXY-ECD and 50 µM CLE9, CLE45 or CLE41 peptide, respectively; fractions on Coomassie-stained gels; both purified
T2 sequence: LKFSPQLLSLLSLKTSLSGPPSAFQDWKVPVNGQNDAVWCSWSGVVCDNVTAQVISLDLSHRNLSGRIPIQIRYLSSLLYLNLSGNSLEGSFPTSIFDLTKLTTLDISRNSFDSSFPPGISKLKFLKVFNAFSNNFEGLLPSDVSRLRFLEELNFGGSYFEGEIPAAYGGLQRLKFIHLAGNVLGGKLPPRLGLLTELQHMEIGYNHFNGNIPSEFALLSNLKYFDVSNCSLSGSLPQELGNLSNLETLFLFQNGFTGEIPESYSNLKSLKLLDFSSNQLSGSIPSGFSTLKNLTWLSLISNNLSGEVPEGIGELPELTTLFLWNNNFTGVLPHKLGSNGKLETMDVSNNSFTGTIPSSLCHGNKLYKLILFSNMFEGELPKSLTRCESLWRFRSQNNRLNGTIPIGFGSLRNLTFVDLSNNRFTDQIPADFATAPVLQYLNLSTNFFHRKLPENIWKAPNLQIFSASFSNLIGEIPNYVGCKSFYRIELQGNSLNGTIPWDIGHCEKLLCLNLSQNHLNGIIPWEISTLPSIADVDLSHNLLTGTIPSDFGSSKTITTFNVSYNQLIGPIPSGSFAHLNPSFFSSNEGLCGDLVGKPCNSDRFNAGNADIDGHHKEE

[3] = biological target: T3, BARELY ANY MERISTEM 3 (BAM3) ectodomain (Arabidopsis thaliana) (UniProt O65440); assay: condition: 100 µg CLERK-ECD, equimolar BAM3-ECD, with 50 µM CLE45; SEC; analytical gel filtration, Superdex 200 Increase 10/300 GL, 20 mM citrate (pH 5.0), 150 mM NaCl; 100 µg of each NIK-ECD, CLERK-ECD or At5G63710-ECD mixed with equimolar BAM1-ECD, BAM3-ECD or PXY-ECD and 50 µM CLE9, CLE45 or CLE41 peptide, respectively; fractions on Coomassie-stained gels; both purified
T3 sequence: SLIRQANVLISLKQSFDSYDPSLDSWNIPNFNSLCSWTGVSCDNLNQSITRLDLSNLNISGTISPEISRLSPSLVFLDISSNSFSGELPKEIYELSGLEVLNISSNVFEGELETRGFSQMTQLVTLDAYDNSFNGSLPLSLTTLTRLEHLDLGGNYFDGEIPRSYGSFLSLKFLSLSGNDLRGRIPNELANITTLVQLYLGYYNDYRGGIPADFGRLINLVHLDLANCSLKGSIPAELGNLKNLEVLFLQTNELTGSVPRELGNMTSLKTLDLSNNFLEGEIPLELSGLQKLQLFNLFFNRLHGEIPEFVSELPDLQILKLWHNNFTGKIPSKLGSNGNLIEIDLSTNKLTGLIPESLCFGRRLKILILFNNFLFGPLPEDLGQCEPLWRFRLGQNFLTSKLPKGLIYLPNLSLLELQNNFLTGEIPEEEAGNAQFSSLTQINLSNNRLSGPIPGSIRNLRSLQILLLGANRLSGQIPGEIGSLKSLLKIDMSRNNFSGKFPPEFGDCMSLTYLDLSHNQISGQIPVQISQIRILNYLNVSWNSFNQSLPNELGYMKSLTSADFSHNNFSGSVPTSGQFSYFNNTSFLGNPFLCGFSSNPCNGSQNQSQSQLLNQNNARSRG

[4] = biological target: T4, CLE-… RECEPTOR KINASE (CLERK) ectodomain (Arabidopsis thaliana) (UniProt Q0WVM4); assay: condition: 400 µM CLE45 titrated into 30 µM CLERK-ECD; ITC; Nano ITC, 25°C, 20 mM citrate (pH 5.0), 150 mM NaCl; peptide in the syringe, ectodomain in the cell: 400 µM CLE26 or CLE45 into 30 µM CLERK-ECD; 80 µM CLE9 into 13.8 µM BAM1-ECD; both purified
T4 sequence: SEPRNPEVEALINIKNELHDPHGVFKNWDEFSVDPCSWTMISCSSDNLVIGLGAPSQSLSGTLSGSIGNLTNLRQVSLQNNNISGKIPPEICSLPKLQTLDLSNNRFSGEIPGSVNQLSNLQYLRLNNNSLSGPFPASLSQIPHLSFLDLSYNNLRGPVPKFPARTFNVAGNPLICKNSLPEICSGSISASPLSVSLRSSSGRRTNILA

[5] = biological target: T4, CLE-… RECEPTOR KINASE (CLERK) ectodomain (Arabidopsis thaliana); assay: condition: 400 µM CLE26 titrated into 30 µM CLERK-ECD; ITC; Nano ITC, 25°C, 20 mM citrate (pH 5.0), 150 mM NaCl; peptide in the syringe, ectodomain in the cell: 400 µM CLE26 or CLE45 into 30 µM CLERK-ECD; 80 µM CLE9 into 13.8 µM BAM1-ECD; both purified
[6] = biological target: T1, BARELY ANY MERISTEM 1 (BAM1) ectodomain (Arabidopsis thaliana); assay: condition: 100 µg NIK3-ECD, equimolar BAM1-ECD, with 50 µM CLE9; SEC; analytical gel filtration, Superdex 200 Increase 10/300 GL, 20 mM citrate (pH 5.0), 150 mM NaCl; 100 µg of each NIK-ECD, CLERK-ECD or At5G63710-ECD mixed with equimolar BAM1-ECD, BAM3-ECD or PXY-ECD and 50 µM CLE9, CLE45 or CLE41 peptide, respectively; fractions on Coomassie-stained gels; both purified
[7] = biological target: T2, PHLOEM … WITH XYLEM (PXY) ectodomain (Arabidopsis thaliana); assay: condition: 100 µg NIK3-ECD, equimolar PXY-ECD, with 50 µM CLE41; SEC; analytical gel filtration, Superdex 200 Increase 10/300 GL, 20 mM citrate (pH 5.0), 150 mM NaCl; 100 µg of each NIK-ECD, CLERK-ECD or At5G63710-ECD mixed with equimolar BAM1-ECD, BAM3-ECD or PXY-ECD and 50 µM CLE9, CLE45 or CLE41 peptide, respectively; fractions on Coomassie-stained gels; both purified
[8] = biological target: T3, BARELY ANY MERISTEM 3 (BAM3) ectodomain (Arabidopsis thaliana); assay: condition: 100 µg NIK3-ECD, equimolar BAM3-ECD, with 50 µM CLE45; SEC; analytical gel filtration, Superdex 200 Increase 10/300 GL, 20 mM citrate (pH 5.0), 150 mM NaCl; 100 µg of each NIK-ECD, CLERK-ECD or At5G63710-ECD mixed with equimolar BAM1-ECD, BAM3-ECD or PXY-ECD and 50 µM CLE9, CLE45 or CLE41 peptide, respectively; fractions on Coomassie-stained gels; both purified
[9] = biological target: T1, BARELY ANY MERISTEM 1 (BAM1) ectodomain (Arabidopsis thaliana); assay: condition: 100 µg At5G63710-ECD, equimolar BAM1-ECD, with 50 µM CLE9; SEC; analytical gel filtration, Superdex 200 Increase 10/300 GL, 20 mM citrate (pH 5.0), 150 mM NaCl; 100 µg of each NIK-ECD, CLERK-ECD or At5G63710-ECD mixed with equimolar BAM1-ECD, BAM3-ECD or PXY-ECD and 50 µM CLE9, CLE45 or CLE41 peptide, respectively; fractions on Coomassie-stained gels; both purified
[10] = biological target: T2, PHLOEM … WITH XYLEM (PXY) ectodomain (Arabidopsis thaliana); assay: condition: 100 µg At5G63710-ECD, equimolar PXY-ECD, with 50 µM CLE41; SEC; analytical gel filtration, Superdex 200 Increase 10/300 GL, 20 mM citrate (pH 5.0), 150 mM NaCl; 100 µg of each NIK-ECD, CLERK-ECD or At5G63710-ECD mixed with equimolar BAM1-ECD, BAM3-ECD or PXY-ECD and 50 µM CLE9, CLE45 or CLE41 peptide, respectively; fractions on Coomassie-stained gels; both purified
[11] = biological target: T3, BARELY ANY MERISTEM 3 (BAM3) ectodomain (Arabidopsis thaliana); assay: condition: 100 µg At5G63710-ECD, equimolar BAM3-ECD, with 50 µM CLE45; SEC; analytical gel filtration, Superdex 200 Increase 10/300 GL, 20 mM citrate (pH 5.0), 150 mM NaCl; 100 µg of each NIK-ECD, CLERK-ECD or At5G63710-ECD mixed with equimolar BAM1-ECD, BAM3-ECD or PXY-ECD and 50 µM CLE9, CLE45 or CLE41 peptide, respectively; fractions on Coomassie-stained gels; both purified

Binder: RKVPRGPDPIHN [CLE26 peptide]
binding [5]: no binding

B3: At5G63710 ectodomain (domain or fragment, UniProt Q8W4S5 51-224)
chain: DIEGGALLQLRDSLNDSSNRLKWTRDFVSPCYSWSYVTCRGQSVVALNLASSGFTGTLSPAITKLKFLVTLELQNNSLSGALPDSLGNMVNLQTLNLSVNSFSGSIPASWSQLSNLKHLDLSSNNLTGSIPTQFFSIPTFDFSGTQLICGKSLNQPCSSSSRLPVTSSKKKLRD
binding [9]: no binding | binding [10]: no binding | binding [11]: no binding

Now from value to binder:

binding [1]: no binding | binding [2]: no binding | binding [3]: no binding
B1: CLE-… RECEPTOR KINASE (CLERK) ectodomain (domain or fragment, UniProt Q0WVM4 28-236)
chain: T4 sequence

binding [4]: no binding
Binder: RRVRRGSDPIHN [CLE45 peptide]

binding [6]: no binding | binding [7]: no binding | binding [8]: no binding
B2: NSP-… KINASE 3 (NIK3) ectodomain (domain or fragment, UniProt Q93ZS4 26-238)
chain: TLSPTGVNYEVTALVAVKNELNDPYKVLENWDVNSVDPCSWRMVSCTDGYVSSLDLPSQSLSGTLSPRIGNLTYLQSVVLQNNAITGPIPETIGRLEKLQSLDLSNNSFTGEIPASLGELKNLNYLRLNNNSLIGTCPESLSKIEGLTLVDISYNNLSGSLPKVSARTFKVIGNALICGPKAVSNCSAVPEPLTLPQDGPDESGTRTNGHHVA
